PMC5499540
Results are given in words; binding and its absence hold for the method and conditions named. Some binding calls cover weakened binding; strength is not graded here.

The chains behind the UniProt entries cited, without tags or fusion partners. Where a name states a change or a piece, a line headed by the entry shows the natural chain unless it says otherwise. A line that says so, or that is headed by a name, gives the form on record, which may keep a tag or linker. Residues count along the entry.
UniProt Q05471: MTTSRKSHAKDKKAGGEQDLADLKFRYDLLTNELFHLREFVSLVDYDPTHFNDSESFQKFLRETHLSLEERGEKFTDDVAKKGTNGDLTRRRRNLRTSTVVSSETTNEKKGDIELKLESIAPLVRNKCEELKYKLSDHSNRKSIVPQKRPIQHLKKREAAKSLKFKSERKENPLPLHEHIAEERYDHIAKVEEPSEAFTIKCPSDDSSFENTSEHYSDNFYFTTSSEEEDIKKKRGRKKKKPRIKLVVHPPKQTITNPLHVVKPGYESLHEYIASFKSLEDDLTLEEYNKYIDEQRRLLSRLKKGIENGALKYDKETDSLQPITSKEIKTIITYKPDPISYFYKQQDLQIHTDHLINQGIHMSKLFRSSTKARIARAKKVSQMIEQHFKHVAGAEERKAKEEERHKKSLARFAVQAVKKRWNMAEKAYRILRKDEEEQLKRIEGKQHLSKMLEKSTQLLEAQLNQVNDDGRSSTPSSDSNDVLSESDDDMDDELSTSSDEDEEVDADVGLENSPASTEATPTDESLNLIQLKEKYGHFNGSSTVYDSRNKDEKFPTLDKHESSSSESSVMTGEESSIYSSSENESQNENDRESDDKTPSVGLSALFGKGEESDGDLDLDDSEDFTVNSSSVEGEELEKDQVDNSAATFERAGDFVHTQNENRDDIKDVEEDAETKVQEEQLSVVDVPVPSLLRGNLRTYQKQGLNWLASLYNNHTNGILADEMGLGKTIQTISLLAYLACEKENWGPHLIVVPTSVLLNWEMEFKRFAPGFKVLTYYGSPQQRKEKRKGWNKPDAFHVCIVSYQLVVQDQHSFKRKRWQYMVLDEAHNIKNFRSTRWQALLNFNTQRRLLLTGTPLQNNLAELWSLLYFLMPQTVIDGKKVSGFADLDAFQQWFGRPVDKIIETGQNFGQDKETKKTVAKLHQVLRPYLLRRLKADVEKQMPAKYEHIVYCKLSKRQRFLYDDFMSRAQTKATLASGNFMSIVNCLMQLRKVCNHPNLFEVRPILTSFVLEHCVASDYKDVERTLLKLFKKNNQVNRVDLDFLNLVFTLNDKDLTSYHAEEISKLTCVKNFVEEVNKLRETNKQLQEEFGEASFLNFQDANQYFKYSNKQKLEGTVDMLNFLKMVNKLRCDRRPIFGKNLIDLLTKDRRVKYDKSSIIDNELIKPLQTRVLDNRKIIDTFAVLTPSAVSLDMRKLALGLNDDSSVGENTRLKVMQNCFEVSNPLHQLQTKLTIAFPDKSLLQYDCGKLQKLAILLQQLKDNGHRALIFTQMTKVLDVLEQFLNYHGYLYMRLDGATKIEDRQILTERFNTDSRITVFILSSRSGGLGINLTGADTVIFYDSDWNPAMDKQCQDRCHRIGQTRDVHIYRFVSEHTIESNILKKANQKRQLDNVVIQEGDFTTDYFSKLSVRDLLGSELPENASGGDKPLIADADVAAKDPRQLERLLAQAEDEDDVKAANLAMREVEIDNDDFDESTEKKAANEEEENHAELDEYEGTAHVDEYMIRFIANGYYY
Swr1 C-terminal truncation, truncated at residue 1497: residues 1-1497 of Q05471
Swr1 C-terminal truncation at residue 1460: residues 1-1460 of Q05471
Swr1 C-terminal truncation at residue 1410: residues 1-1410 of Q05471
Swr1 C-terminal truncation to 1359: residues 1-1359 of Q05471
Swr1 residues 1–681 (NTD): residues 1-681 of Q05471
Swr1 N-terminal truncation, first 210 residues removed: residues 211-1514 of Q05471
Swr1 N-terminal truncation, first 264 residues removed: residues 265-1514 of Q05471
Swr1 N-terminal truncation to residue 299: residues 300-1514 of Q05471
Swr1 N-terminal truncation, 339 residues deleted: residues 340-1514 of Q05471
Swr1 N-terminal truncation to residue 369: residues 370-1514 of Q05471
Swr1 N-terminal truncation to residue 409: residues 410-1514 of Q05471
Swr1 actin binding site deletion mutant ΔA1 (missing residues 370–409) (Q05471, form named): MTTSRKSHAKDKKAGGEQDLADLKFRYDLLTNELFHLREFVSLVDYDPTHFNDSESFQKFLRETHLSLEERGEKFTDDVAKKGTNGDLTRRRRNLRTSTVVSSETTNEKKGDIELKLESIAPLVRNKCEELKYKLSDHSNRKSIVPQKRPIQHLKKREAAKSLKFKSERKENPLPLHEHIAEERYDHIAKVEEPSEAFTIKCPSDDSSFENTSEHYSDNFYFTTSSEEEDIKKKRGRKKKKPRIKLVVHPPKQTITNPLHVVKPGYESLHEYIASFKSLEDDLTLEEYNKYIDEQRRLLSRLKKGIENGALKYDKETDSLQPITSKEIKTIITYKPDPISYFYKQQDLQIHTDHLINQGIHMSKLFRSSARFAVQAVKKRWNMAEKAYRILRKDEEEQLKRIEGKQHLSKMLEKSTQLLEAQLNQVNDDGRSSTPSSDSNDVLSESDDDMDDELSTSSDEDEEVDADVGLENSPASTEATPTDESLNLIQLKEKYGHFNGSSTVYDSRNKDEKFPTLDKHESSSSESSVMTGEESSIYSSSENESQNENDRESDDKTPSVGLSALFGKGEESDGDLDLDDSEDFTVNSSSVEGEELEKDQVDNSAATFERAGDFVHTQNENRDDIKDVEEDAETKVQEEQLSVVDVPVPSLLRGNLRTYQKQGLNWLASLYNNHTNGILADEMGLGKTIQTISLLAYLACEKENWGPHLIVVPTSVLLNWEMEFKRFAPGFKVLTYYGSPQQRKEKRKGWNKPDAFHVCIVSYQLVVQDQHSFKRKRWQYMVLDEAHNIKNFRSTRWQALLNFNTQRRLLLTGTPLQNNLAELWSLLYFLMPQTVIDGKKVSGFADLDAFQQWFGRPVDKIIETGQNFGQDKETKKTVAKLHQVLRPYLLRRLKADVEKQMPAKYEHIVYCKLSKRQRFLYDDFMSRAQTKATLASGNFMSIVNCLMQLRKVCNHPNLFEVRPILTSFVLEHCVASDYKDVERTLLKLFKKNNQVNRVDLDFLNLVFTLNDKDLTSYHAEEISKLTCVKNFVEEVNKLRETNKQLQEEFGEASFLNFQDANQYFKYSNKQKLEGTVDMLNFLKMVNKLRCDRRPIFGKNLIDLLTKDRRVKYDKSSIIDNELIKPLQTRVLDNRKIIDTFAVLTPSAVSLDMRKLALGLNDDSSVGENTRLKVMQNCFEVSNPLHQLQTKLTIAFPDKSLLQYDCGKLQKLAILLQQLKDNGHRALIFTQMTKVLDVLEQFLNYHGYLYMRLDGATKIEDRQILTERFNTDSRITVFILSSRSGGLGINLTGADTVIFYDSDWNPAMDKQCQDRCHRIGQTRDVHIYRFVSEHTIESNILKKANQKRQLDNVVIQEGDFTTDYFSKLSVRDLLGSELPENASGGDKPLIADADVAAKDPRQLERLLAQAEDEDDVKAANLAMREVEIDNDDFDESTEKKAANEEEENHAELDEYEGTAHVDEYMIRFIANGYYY
Swr1 actin binding site deletion mutant ΔA2 (missing residues 410–459) (Q05471, form named): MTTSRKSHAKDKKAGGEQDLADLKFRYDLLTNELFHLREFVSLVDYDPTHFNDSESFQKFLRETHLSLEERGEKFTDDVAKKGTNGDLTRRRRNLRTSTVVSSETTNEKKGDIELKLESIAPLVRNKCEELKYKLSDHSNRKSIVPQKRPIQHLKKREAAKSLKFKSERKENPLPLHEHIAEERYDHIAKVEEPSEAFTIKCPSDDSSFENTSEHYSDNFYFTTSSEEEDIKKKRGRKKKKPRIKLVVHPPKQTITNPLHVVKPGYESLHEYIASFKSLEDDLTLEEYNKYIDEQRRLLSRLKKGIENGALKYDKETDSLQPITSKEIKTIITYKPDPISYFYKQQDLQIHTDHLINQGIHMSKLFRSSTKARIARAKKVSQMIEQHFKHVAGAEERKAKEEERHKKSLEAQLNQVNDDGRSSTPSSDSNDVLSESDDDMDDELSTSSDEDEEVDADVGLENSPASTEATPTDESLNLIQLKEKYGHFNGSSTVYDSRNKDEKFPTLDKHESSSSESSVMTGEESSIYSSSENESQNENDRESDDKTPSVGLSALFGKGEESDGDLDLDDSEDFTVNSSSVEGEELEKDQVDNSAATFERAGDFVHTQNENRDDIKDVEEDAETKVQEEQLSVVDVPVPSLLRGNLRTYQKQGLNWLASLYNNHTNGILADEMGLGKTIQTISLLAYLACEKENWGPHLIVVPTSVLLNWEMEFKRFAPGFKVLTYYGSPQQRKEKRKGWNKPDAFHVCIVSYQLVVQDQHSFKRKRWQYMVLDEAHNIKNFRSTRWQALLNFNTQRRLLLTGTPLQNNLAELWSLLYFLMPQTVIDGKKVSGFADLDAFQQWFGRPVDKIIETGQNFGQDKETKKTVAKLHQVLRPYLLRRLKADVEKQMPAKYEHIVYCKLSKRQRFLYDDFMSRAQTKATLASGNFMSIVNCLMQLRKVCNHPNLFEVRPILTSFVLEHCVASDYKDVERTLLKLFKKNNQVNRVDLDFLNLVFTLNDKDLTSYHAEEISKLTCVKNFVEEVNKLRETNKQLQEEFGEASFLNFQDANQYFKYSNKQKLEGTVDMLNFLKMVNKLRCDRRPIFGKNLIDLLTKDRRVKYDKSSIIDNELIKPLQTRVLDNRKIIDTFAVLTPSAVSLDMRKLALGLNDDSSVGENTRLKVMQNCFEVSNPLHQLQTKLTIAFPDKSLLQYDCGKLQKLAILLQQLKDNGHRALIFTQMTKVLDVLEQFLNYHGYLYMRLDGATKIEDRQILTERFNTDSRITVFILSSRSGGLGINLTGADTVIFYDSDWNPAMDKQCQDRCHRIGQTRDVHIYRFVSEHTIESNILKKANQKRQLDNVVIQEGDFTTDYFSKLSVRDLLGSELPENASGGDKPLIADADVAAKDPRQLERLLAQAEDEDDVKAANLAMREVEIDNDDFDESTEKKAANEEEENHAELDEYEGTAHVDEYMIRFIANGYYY
Swr1 residues (1–681)-(GGGS)2-(1360–1514) (ΔATPase) (Q05471, form named): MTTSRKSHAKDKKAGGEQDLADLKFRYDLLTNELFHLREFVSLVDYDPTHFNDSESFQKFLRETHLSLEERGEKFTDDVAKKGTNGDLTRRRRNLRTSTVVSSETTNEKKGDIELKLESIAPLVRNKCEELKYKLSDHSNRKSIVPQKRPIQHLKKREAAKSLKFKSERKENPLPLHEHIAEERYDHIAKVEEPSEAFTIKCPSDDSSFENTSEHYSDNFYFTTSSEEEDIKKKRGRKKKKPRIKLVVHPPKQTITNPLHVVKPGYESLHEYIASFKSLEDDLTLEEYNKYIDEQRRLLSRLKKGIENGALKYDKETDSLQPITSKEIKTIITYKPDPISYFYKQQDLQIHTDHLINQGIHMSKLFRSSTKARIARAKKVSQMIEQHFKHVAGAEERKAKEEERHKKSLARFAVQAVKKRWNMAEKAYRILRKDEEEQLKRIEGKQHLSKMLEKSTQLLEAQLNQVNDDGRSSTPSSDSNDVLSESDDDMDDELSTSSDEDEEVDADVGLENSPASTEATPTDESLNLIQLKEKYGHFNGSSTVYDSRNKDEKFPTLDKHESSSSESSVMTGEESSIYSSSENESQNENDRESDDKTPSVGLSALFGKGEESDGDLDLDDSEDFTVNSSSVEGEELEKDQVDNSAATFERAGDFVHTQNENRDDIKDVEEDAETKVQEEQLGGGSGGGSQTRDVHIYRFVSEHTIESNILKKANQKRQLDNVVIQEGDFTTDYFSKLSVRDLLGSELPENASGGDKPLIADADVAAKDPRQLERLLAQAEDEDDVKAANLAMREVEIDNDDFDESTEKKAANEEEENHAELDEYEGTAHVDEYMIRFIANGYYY

What was measured:
Test in all cases: co-purification of co-expressed subunits (StrepTactin affinity, ion exchange, SDS gel); all fourteen genes co-expressed in High Five cells; lysis and wash in 50 mM Tris pH 8.0, 500 mM NaCl; captured by the twin Strep-tag of Swr1 or its variant on StrepTactin HP, then HiTrap Q HP; bands on the SDS gel identified by mass spectrometry
[1] = target: Swr1 C-terminal truncation to 1359 (yeast) (UniProt Q05471)
[2] = target: Swr1 N-terminal truncation to residue 369 (yeast) (UniProt Q05471)
[3] = target: Swr1 C-terminal truncation, truncated at residue 1497 (yeast) (UniProt Q05471)
[4] = target: Swr1 C-terminal truncation at residue 1410 (yeast) (UniProt Q05471)
[5] = target: Swr1 actin binding site deletion mutant ΔA1 (missing residues 370–409) (yeast) (UniProt Q05471)
[6] = target: Swr1 N-terminal truncation, first 264 residues removed (yeast) (UniProt Q05471)
[7] = target: Swr1 C-terminal truncation at residue 1460 (yeast) (UniProt Q05471)
[8] = target: Swr1 N-terminal truncation, 339 residues deleted (yeast) (UniProt Q05471)
[9] = target: Swr1 N-terminal truncation, first 210 residues removed (yeast) (UniProt Q05471)
[10] = target: Swr1 N-terminal truncation to residue 299 (yeast) (UniProt Q05471)
[11] = target: Swr1 actin binding site deletion mutant ΔA2 (missing residues 410–459) (yeast) (UniProt Q05471)
[12] = target: Swr1 N-terminal truncation to residue 409 (yeast) (UniProt Q05471)
[13] = target: Swr1 residues (1–681)-(GGGS)2-(1360–1514) (ΔATPase) (yeast) (UniProt Q05471)
[14] = target: Swr1 residues 1–681 (NTD) (yeast) (UniProt Q05471)
[15] = target: Swr1 (residues 1–1514 with an N-terminal 8-histidine and C-terminal twin Strep-tag) (yeast) (UniProt Q05471)

Measured: binding

actin (from UniProt P60010 1-375)
binds: all assays above
